Measurements: publication PMC5150216
Results are given in words; binding and its absence hold for the method and conditions named. In cells and extracts the contact can be indirect. These calls come from enrichment with a bait or labelling near it, and not all partners need be listed.

Biological target: T1, ExoY^K81M-TAP (P. aeruginosa PAO1) (UniProt Q9I1S4)
T1 sequence: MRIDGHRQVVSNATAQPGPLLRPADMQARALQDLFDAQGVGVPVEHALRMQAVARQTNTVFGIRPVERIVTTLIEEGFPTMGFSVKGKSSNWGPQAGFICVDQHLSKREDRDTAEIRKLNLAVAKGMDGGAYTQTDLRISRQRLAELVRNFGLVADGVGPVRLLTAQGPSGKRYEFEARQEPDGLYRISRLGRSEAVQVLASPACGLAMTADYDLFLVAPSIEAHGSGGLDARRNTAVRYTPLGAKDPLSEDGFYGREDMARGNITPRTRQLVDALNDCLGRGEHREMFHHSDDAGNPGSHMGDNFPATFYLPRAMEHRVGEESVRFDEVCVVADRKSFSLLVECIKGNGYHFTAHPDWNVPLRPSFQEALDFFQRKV
Assay: affinity purification with mass spectrometry

## yeast actin (Act1) (from UniProt P60010 1-375)
  binding: binds
